# According to paper PMC11631767:
# The chains behind the UniProt entries cited, without tags or fusion partners.
# UniProt Q07666: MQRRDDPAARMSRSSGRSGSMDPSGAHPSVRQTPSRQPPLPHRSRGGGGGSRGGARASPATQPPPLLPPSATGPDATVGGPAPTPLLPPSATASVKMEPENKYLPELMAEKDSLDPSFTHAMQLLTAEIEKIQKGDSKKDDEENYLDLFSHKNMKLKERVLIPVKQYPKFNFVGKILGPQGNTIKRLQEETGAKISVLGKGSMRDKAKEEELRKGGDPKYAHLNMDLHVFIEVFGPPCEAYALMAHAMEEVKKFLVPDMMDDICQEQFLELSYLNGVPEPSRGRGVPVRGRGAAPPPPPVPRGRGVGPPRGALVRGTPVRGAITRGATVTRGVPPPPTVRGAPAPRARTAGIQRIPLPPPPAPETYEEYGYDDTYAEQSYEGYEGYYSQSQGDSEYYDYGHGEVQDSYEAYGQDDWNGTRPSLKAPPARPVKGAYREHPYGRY
# UniProt P62993: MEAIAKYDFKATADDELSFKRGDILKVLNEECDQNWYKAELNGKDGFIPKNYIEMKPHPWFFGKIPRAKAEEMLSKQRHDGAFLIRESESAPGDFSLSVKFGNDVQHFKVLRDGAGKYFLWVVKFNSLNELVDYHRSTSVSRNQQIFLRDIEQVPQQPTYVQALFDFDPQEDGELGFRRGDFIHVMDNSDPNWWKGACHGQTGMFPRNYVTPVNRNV
# No constants are given. Whether binding was seen depends on the method and setting. Binding seen in cells or lysates may run through a third protein. Some entries that bind do so weakly or less than the wild type.
# Columns and labels:
# [1] = biological target: Src-Associated in Mitosis 68-kDa (SAM68) protein (human (endogenous in Beas2B)) (UniProt Q07666); assay: co-IP; Sam68 immunoprecipitation from lysates of Beas2B cells, blot for Grb2; both endogenous
# [2] = biological target: Src-Associated in Mitosis 68-kDa (SAM68) protein (human (endogenous in Beas2B)) (UniProt Q07666); assay: condition: only cells treated with 1 μM YB-0158 for 1 h; co-IP; Sam68 immunoprecipitation from lysates of Beas2B cells treated with 1 μM YB-0158 for 1 h, blot for Grb2; both endogenous
substance,measurement,setting,value
Grb2 (from UniProt P62993 1-217),binding,[1],binds
same,binding,[2],no binding
